# Data published in PubChem BioAssay AID2549 (National Center for Advancing Translational Sciences (NCATS), 2010).
# Sequences of proteins named here, by UniProt entry; tags and fusion partners are left off. A change or cut given only in a name is not applied to a line headed by its entry.
# UniProt P46063: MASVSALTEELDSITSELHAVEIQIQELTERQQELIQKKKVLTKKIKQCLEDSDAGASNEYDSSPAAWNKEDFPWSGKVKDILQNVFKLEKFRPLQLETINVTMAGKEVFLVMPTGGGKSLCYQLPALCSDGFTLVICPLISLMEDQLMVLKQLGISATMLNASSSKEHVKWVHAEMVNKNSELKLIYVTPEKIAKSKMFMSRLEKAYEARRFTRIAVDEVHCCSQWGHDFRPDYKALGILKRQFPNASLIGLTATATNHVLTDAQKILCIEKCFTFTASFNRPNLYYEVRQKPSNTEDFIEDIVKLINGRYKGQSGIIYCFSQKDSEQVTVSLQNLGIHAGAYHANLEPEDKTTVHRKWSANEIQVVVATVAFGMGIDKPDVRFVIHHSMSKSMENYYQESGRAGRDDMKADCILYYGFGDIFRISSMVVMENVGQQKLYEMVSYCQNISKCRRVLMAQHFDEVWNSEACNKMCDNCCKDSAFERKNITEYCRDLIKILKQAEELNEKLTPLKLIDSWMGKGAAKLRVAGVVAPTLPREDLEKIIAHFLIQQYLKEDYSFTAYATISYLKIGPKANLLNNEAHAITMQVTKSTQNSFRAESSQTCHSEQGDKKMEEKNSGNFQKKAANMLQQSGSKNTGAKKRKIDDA
# Screen size: about 240,000 compounds; about 1,300 (0.54%) were called active. The inconclusive results got no clear call from the source; some entries with a clear call stand among them for comparison. Calls follow the shape of the dose curve; as a rule, active = well fitted inhibition curve with a large enough effect; inconclusive = small, poorly fitted or top-dose-only effect; inactive = flat fitted curve, though single readings scatter. Where the call is inconclusive, the potency comes from a doubtful curve fit.
# Molecular target: ATP-dependent DNA helicase Q1 (Homo sapiens) (UniProt P46063)
# Test: qHTS Assay for Inhibitors of RecQ-Like Dna Helicase 1 (RECQ1); also: nearly all actives have a fitted effect of over 30% in size
# Settings: RECQ1 DNA unwinding, red fluorescence kinetic read; series mostly up to 57.3 µM
# Outline: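 50 nM RECQ1T1 preincubated 15 min with compound in Tris pH 8.0 buffer with MgCl2, DTT, Tween-20 and 2.5 ug/ml poly(dI-dC); started with 200 nM TAMRA/BHQ-2 forked duplex and 2 mM ATP. Unwinding read as fluorescence (525/598 nm), two reads 2 h apart.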
# Potency is read from the fitted curve at half-maximal effect.
Compound,Potency,outcome
COc1ccccc1N1C(=O)C=C(Sc2nc(C)cc(C)n2)C1=O,inactive,
Cc1nc(/C(N)=N/OC(=O)Cc2ccccc2)no1,"inconclusive: 1 µM [inhibitor, full curve]",
Cc1cccc(OCC(=O)N/N=C/C=C/c2ccco2)c1,inactive,
CCc1nnc(NC(=O)c2sc3nc4c(cc3c2N)CCCCCC4)s1,"inconclusive: 39.8 µM [inhibitor, single point]",
Cc1cccc(C)c1O,inactive,
COCCn1c(=O)c(-c2ccc(F)cc2)nc2cnc(N3CCOCC3)nc21,inactive,
O=C(N/N=C1/C[C@@H](O)[C@@H](O)[C@@H]2[C@@H]3C(=O)N(c4cccc(Oc5ccccc5)c4)C(=O)[C@H]3CC[C@H]12)OCc1ccccc1,,inactive [at 11.5 µM]
CCOc1cc(CNc2ccc(N3CCCC3)cc2)cc(Cl)c1OC,inactive,
COc1ccc(C)cc1NC(=O)COC(=O)Cc1ccc(-c2ccccc2)cc1,"inconclusive: 35.5 µM [inhibitor, single point]",
COc1cccc(NC(=O)CC2S/C(=N\S(=O)(=O)c3ccccc3)N(c3ccccc3)C2=O)c1 (stereo not drawn),active: 39.8 µM,
O=C(COC(=O)c1ccc(S(=O)(=O)N2CCc3ccccc3C2)cc1)NC1CCS(=O)(=O)C1 (stereo not drawn),"inconclusive: 35.5 µM [inhibitor, single point]",
Cc1ccnc(NS(=O)(=O)c2ccc(N=CC3=C(O)CC(C)(C)CC3=O)cc2)n1,"inconclusive: 3.98 µM [inhibitor, partial curve]",
CCCN1CCC(=O)N(CCSc2ccc(OC)cc2)CC1,"inconclusive: 6.31 µM [inhibitor, single point]",
CCOC(=O)c1cn(-c2nc(-c3ccc(Cl)c(Cl)c3)cs2)c2c(F)c(N3CCOCC3)c(F)cc2c1=O,inactive,
O=S(=O)(c1ccc(NC(=S)N/N=C/c2ccc(O)c(O)c2)cc1)N1CCOCC1,"inconclusive: 31.6 µM [inhibitor, single point]",
COc1ccc(SCC(CC(C)C)N2CCN(CCc3ccccc3)CCC2=O)cc1 (stereo not drawn),inactive,
Nc1ccc(Sc2cnn(-c3ccccc3)c(=O)c2Cl)cc1,"inconclusive: 6.31 µM [inhibitor, single point]",
O=C(N/N=C/c1ccc(OCc2ccccc2)cc1)c1cc[n+](Cc2ccccc2)cc1,"inconclusive: 31.6 µM [inhibitor, single point]",
O=C(Nc1ccccc1F)c1coc(=O)c(Br)c1,"inconclusive: 25.1 µM [inhibitor, single point]",
C=CCN1C=C2C(=O)C(C)(OC(=O)c3ccc(OC)cc3)C(=O)C(c3ccco3)=C2C=C1CCCC (stereo not drawn),"inconclusive: 7.08 µM [inhibitor, single point]",
COc1ccc(Nc2nc(N3CCCCC3)c3ccccc3n2)cc1,"inconclusive: 15.8 µM [inhibitor, partial curve]",
O=C(COC(=O)c1c2c(nc3ccccc13)/C(=C/c1ccco1)CC2)NC1CCCC1,"inconclusive: 3.55 µM [inhibitor, partial curve]",

# A section taken from the entries so far:
Compound,Potency,outcome
O=C(Nc1ccccc1F)c1coc(=O)c(Br)c1,"inconclusive: 25.1 µM [inhibitor, single point]",
C=CCN1C=C2C(=O)C(C)(OC(=O)c3ccc(OC)cc3)C(=O)C(c3ccco3)=C2C=C1CCCC (stereo not drawn),"inconclusive: 7.08 µM [inhibitor, single point]",
COc1ccc(Nc2nc(N3CCCCC3)c3ccccc3n2)cc1,"inconclusive: 15.8 µM [inhibitor, partial curve]",
O=C(COC(=O)c1c2c(nc3ccccc13)/C(=C/c1ccco1)CC2)NC1CCCC1,"inconclusive: 3.55 µM [inhibitor, partial curve]",

# Additional records

Compound,Potency,outcome
Cc1cc(C)c(C)c(S(=O)(=O)ON2C(=O)c3ccccc3C2=O)c1C,inactive,
CC(=O)Oc1ccc2ccccc2c1C(NC(=O)Cc1ccccc1)c1ccc(Cl)cc1 (stereo not drawn),"inconclusive: 39.8 µM [inhibitor, single point]",
Nc1nc(N)c(N=Nc2ccc(Cl)cc2)c(=O)[nH]1,"inconclusive: 0.0251 µM [inhibitor, full curve, poor fit]",
CCCCn1c(NC(=O)c2ccco2)c(S(=O)(=O)c2ccc(C)cc2)c2nc3ccccc3nc21,"inconclusive: 39.8 µM [inhibitor, single point]",
COC(=O)c1ccc2c(c1)C(C)(C)C(/C=C/c1ccc(O)cc1)=[N+]2C,active: 12.6 µM,
Cc1nn(-c2ccccc2)c2nc(-c3ccco3)cc(C(=O)O)c12,active: 28.2 µM,
CCn1ccnc1CN1CCc2c([nH]c3ccccc23)C1C1CCCCC1 (stereo not drawn),inactive,
COc1ccc(N2Cc3cccc(C(=O)N4CCN(C(=O)c5ccco5)CC4)c3C2=O)cc1,active: 10 µM,
CN1c2ccccc2C(C)(C)[C@]12C=Cc1cc(O)ccc1O2,"inconclusive: 31.6 µM [inhibitor, partial curve]",
COC(=O)c1ccc2c(c1)nc(C)n2CCO,inactive,
Oc1ccccc1-c1nc2c3ccccc3c3ccccc3c2[nH]1,"inconclusive: 20 µM [inhibitor, single point]",
CCn1nc(C(=O)Nc2ccc(S(=O)(=O)Nc3nccs3)cc2)c2ccccc2c1=O,"inconclusive: 28.2 µM [inhibitor, single point]",
CCCS(=O)(=O)C(=C(Nc1ccc(OC)cc1)Nc1ccc(OC)cc1)S(=O)(=O)CCC,"inconclusive: 0.158 µM [inhibitor, full curve, poor fit]",
CC(C)C(=O)c1ccc(O)c(O)c1,"inconclusive: 7.08 µM [inhibitor, single point]",
O=C(NCc1ccccc1)C1=C[C@@H](c2ccc(C(F)(F)F)cc2)C[C@@H](OCc2ccc(CO)cc2)O1,"inconclusive: 39.8 µM [inhibitor, single point]",
O=P1(O)Oc2c(c(-c3ccccc3)cc3ccccc23)-c2c(-c3ccccc3)cc3ccccc3c2O1,"inconclusive: 39.8 µM [inhibitor, single point]",
O=C(COC(=O)c1ccccc1)NCc1ccco1,"inconclusive: 20 µM [inhibitor, partial curve]",
COc1ccccc1NCc1nnc(SCC(=O)N/N=C/c2ccco2)n1-c1ccc(Cl)cc1Cl,inactive,
O=C(/C=C/c1ccco1)Nc1ccc(C(=O)N2CCOCC2)cc1,"inconclusive: 39.8 µM [inhibitor, single point]",
CO/N=C(\C(=O)N[C@@H]1C(=O)N2C(C(=O)O)=C(CSc3nc(=O)c(O)nn3C)CSC12)c1csc(N)n1 (stereo partly drawn),"inconclusive: 25.1 µM [inhibitor, partial curve, poor fit]",
O=C(c1ccc(Cl)cc1)C1CCCN(Cc2cnn(-c3ccccc3)c2)C1 (stereo not drawn),"inconclusive: 0.158 µM [inhibitor, partial curve, poor fit]",
